Results: publication PMC12008848
No constants are given. Whether binding was seen depends on the method and setting. Binding seen in cells or lysates may run through a third protein. Some binding calls cover weakened binding; strength is not graded here. Tags and fused reporters may be left off the sequences shown.

Biological target: T1, Flag-TRIM27 (tripartite motif-containing 27, wild type) (UniProt P14373)
T1 sequence: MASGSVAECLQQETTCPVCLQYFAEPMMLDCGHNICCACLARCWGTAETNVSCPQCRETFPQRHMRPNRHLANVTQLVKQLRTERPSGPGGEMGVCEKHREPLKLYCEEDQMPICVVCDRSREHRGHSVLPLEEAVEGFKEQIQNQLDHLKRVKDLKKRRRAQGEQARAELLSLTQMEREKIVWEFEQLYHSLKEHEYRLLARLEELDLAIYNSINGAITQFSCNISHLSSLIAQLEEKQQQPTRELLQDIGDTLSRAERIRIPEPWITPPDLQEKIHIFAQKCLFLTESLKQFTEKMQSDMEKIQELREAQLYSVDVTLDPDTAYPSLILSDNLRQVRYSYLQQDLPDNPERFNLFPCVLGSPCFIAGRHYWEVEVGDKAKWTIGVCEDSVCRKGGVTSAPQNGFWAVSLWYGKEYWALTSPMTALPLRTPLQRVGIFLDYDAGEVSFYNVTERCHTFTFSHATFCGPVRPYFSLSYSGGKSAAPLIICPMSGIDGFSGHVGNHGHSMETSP
Experiment: co-IP; 293T cells transfected with Myc-TAB2 and Flag-TRIM27 or Flag-TRIM27-ΔR; lysates immunoprecipitated with anti-Flag, blotted with anti-Flag or anti-Myc; extraction buffer 50 mM Tris-HCl pH 8.0, 150 mM NaCl, 1 mM EDTA, 0.5% Nonidet P40

B1: Myc-TAB2 (TAK1 binding protein 2) (protein, UniProt Q9NYJ8 1-693)
chain: MAQGSHQIDFQVLHDLRQKFPEVPEVVVSRCMLQNNNNLDACCAVLSQESTRYLYGEGDLNFSDDSGISGLRNHMTSLNLDLQSQNIYHHGREGSRMNGSRTLTHSISDGQLQGGQSNSELFQQEPQTAPAQVPQGFNVFGMSSSSGASNSAPHLGFHLGSKGTSSLSQQTPRFNPIMVTLAPNIQTGRNTPTSLHIHGVPPPVLNSPQGNSIYIRPYITTPGGTTRQTQQHSGWVSQFNPMNPQQVYQPSQPGPWTTCPASNPLSHTSSQQPNQQGHQTSHVYMPISSPTTSQPPTIHSSGSSQSSAHSQYNIQNISTGPRKNQIEIKLEPPQRNNSSKLRSSGPRTSSTSSSVNSQTLNRNQPTVYIAASPPNTDELMSRSQPKVYISANAATGDEQVMRNQPTLFISTNSGASAASRNMSGQVSMGPAFIHHHPPKSRAIGNNSATSPRVVVTQPNTKYTFKITVSPNKPPAVSPGVVSPTFELTNLLNHPDHYVETENIQHLTDPTLAHVDRISETRKLSMGSDDAAYTQALLVHQKARMERLQRELEIQKKKLDKLKSEVNEMENNLTRRRLKRSNSISQIPSLEEMQQLRSCNRQLQIDIDCLTKEIDLFQARGPHFNPSAIHNFYDNIGFVGPVPPKPKDQRSIIKTPKTQDTEDDEGAQWNCTACTFLNHPALIRCEQCEMPRHF
B1 was tested, and the binding was “binds”.
